Experimental data published in publication PMC11042255.

Chains of the proteins cited; added tags and fusions are not shown. Lines headed by an entry give the natural chain unless they say otherwise; changes in a name come on top.
UniProt Q8R4B8: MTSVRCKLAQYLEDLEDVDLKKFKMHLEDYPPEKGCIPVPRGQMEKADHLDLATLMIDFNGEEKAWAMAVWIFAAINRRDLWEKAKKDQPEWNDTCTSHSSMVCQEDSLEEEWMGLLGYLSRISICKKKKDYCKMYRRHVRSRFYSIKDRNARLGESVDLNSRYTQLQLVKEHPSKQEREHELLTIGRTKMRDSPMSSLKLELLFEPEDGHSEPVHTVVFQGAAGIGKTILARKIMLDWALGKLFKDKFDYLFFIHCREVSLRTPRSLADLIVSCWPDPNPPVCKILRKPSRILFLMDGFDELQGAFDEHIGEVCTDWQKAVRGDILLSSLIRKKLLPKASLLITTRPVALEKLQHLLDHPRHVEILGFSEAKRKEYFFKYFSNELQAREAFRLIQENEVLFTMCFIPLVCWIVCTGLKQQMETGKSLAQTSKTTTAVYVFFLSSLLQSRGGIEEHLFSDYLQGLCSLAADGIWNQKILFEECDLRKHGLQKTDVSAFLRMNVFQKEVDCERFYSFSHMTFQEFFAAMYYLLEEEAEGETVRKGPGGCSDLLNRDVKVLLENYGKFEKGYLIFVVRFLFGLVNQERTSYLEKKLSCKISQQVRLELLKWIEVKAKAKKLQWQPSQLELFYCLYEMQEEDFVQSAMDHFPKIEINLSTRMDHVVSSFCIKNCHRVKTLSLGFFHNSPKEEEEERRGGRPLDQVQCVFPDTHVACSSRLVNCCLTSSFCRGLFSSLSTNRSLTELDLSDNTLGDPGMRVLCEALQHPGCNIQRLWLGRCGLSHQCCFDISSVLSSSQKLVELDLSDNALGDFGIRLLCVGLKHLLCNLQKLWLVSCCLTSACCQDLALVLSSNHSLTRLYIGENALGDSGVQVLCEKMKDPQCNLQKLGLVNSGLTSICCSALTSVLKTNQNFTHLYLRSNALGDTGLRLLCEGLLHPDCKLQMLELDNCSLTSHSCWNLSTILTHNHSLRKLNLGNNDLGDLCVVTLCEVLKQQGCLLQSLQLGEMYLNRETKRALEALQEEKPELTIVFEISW
UniProt Q8VCF0: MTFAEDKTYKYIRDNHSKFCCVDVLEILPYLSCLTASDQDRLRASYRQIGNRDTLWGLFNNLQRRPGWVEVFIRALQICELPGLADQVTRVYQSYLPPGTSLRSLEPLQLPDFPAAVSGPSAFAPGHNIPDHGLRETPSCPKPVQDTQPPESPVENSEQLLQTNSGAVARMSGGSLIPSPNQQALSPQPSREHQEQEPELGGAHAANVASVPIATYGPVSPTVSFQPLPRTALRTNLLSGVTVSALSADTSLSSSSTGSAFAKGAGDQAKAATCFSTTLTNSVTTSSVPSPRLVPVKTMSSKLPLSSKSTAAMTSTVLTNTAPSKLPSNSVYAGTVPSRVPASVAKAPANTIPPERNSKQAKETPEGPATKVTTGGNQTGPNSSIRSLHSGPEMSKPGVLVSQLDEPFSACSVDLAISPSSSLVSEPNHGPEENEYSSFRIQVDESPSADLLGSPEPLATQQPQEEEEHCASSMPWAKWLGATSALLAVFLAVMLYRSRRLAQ
UniProt P46737: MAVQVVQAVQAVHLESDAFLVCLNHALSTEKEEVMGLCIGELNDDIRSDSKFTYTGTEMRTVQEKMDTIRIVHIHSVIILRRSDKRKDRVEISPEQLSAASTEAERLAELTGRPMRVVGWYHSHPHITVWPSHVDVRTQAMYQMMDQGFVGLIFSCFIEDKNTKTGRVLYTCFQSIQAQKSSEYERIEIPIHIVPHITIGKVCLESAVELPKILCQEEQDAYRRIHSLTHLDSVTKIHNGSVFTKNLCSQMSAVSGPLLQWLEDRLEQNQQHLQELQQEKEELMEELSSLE
UniProt P63330: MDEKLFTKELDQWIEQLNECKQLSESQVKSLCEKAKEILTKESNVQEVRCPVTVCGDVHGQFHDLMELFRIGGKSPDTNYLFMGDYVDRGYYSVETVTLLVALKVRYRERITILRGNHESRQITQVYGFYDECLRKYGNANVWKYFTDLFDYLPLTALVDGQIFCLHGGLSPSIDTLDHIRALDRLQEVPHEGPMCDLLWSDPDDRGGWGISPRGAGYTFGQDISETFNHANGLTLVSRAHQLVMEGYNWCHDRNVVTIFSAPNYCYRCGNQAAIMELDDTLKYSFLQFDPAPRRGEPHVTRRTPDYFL

Target: Nlrp3-APEX2 (Nlrp3-APEX-FLAG-IRES-GFP expression construct) (mouse) (UniProt Q8R4B8)
Experiment: proximity labelling; APEX2 proximity biotinylation in Nlrp3-/- iBMDMs expressing Nlrp3-APEX2, with APEX2-P4C as background control; with or without LPS (1 μg/mL, 4 h), then nigericin (20 μM, 20 min) or CL097 (75 μg/mL, 25 min); biotin phenol (500 μM, 45 min), H2O2 (1 min); TMT-based quantitative proteomics of the biotinylated proteins

binding | Substance
binds | Mavs (from UniProt Q8VCF0 1-503)
binds | Brcc3 (from UniProt P46737 1-291) (enzyme)
binds | PP2A (from UniProt P63330) (enzyme)

Results are given in words; binding and its absence hold for the method and conditions named. In cells and extracts the contact can be indirect. A yes stands for co-enrichment or nearness to the bait. Other partners may have been found.
